Data: paper PMC3616908
Results are given in words; binding and its absence hold for the method and conditions named. For some of these results: In cells and extracts the contact can be indirect. Some entries that bind do so weakly or less than the wild type. For some of these results: Sequences can lack the tags named with a protein. Values belong to the molecule of their own block, whether it stands above or below them.

Chains of the proteins cited; added tags and fusions are not shown.
UniProt P00546: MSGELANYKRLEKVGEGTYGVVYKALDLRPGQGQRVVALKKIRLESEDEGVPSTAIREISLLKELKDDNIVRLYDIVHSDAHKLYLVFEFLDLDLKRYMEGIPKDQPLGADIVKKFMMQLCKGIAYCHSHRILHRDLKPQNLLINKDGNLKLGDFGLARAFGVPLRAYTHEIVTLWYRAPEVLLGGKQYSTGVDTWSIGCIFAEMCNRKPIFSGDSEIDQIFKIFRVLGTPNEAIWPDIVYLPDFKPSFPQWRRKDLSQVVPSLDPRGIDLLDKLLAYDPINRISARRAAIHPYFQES
UniProt P22216: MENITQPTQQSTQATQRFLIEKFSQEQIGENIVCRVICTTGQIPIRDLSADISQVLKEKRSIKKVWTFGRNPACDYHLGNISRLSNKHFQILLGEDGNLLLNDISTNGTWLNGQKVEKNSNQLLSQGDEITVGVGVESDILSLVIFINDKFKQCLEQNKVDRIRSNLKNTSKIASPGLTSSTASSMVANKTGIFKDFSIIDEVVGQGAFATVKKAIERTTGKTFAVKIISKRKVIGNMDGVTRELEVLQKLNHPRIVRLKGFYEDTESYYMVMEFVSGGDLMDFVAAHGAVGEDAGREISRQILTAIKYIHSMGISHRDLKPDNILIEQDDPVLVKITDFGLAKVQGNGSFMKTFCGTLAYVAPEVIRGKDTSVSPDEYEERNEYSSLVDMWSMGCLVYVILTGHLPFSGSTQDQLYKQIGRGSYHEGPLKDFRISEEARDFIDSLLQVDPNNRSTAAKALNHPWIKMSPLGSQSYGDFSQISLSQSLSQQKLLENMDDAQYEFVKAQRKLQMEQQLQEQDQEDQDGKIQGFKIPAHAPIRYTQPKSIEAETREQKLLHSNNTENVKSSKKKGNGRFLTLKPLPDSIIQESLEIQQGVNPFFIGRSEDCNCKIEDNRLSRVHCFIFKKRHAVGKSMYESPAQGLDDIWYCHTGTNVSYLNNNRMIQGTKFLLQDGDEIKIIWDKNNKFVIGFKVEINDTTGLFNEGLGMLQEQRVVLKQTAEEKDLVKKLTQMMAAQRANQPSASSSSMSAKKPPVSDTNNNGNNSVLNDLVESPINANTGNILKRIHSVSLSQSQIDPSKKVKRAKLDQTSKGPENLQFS

Key:
Clb5 (S. cerevisiae) = target: T1, Clb5 (S. cerevisiae) (UniProt P30283); experiment: co-purification of kinase complexes; four cyclin-Cdc28 complexes purified from yeast as in ref. 55; silver-stained gel (Figure S2A)
T1 sequence: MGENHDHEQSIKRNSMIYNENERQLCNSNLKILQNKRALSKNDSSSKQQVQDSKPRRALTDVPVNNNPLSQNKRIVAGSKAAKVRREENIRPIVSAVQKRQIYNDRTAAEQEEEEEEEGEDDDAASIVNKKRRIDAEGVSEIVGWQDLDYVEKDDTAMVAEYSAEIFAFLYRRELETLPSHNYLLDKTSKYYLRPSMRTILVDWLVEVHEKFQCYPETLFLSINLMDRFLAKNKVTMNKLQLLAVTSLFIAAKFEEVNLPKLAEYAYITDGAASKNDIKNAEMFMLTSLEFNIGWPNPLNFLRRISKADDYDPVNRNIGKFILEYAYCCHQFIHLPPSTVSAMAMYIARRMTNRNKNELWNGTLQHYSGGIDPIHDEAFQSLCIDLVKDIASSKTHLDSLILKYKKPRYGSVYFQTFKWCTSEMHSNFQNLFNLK

Cln2 (S. cerevisiae) = target: T2, Cln2 (S. cerevisiae) (UniProt P20438); experiment: as above
T2 sequence: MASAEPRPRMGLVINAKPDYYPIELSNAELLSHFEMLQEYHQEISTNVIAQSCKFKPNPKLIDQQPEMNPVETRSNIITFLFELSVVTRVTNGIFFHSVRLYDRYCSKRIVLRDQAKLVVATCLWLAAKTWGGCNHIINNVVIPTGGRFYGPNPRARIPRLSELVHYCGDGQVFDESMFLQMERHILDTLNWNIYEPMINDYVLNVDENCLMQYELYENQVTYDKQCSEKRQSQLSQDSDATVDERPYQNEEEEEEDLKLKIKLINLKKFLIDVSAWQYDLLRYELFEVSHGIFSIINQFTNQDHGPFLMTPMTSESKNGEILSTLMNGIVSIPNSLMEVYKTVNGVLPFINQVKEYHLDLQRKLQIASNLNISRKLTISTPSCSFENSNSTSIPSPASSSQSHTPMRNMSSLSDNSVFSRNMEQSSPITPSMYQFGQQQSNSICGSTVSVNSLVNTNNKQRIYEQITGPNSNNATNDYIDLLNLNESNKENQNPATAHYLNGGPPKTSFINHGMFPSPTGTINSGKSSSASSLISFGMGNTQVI

Clb3 (S. cerevisiae) = target: T3, Clb3 (S. cerevisiae) (UniProt P24870); experiment: as above
T3 sequence: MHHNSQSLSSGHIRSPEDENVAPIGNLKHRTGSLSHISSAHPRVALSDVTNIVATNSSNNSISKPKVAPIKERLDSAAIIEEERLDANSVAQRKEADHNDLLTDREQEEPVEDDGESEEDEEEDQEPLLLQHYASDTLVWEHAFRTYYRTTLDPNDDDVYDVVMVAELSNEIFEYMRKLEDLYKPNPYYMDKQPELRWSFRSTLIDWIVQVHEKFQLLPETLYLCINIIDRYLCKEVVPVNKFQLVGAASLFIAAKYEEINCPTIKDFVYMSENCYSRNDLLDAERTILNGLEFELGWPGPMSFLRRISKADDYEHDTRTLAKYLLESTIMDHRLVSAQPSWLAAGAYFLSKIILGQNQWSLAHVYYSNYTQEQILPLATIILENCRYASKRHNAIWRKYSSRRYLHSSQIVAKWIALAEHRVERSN

Clb2 (S. cerevisiae) = target: T4, Clb2 (S. cerevisiae) (UniProt P24869); experiment: as above
T4 sequence: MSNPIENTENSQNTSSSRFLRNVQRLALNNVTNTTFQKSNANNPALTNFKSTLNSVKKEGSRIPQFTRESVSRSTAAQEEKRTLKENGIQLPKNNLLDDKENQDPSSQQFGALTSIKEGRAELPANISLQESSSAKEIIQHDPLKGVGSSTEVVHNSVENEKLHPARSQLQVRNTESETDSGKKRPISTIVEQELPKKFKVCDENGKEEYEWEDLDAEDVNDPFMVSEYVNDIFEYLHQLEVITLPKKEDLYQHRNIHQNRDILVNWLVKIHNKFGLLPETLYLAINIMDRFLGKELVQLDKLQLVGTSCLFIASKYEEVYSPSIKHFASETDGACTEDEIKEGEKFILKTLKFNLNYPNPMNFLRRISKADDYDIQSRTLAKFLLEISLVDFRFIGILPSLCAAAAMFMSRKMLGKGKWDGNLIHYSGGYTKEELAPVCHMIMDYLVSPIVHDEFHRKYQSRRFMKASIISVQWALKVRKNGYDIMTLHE

[1] = target: T5, Rad9-9MYC (S. cerevisiae) (UniProt P14737); experiment: co-IP; anti-MYC IP of Rad9-9MYC from extract of nocodazole-arrested cells expressing Rad9-9MYC and Chk1-3FLAG, 20 ug/ml bleocin for 45 min; IgG mock control; western blot
T5 sequence: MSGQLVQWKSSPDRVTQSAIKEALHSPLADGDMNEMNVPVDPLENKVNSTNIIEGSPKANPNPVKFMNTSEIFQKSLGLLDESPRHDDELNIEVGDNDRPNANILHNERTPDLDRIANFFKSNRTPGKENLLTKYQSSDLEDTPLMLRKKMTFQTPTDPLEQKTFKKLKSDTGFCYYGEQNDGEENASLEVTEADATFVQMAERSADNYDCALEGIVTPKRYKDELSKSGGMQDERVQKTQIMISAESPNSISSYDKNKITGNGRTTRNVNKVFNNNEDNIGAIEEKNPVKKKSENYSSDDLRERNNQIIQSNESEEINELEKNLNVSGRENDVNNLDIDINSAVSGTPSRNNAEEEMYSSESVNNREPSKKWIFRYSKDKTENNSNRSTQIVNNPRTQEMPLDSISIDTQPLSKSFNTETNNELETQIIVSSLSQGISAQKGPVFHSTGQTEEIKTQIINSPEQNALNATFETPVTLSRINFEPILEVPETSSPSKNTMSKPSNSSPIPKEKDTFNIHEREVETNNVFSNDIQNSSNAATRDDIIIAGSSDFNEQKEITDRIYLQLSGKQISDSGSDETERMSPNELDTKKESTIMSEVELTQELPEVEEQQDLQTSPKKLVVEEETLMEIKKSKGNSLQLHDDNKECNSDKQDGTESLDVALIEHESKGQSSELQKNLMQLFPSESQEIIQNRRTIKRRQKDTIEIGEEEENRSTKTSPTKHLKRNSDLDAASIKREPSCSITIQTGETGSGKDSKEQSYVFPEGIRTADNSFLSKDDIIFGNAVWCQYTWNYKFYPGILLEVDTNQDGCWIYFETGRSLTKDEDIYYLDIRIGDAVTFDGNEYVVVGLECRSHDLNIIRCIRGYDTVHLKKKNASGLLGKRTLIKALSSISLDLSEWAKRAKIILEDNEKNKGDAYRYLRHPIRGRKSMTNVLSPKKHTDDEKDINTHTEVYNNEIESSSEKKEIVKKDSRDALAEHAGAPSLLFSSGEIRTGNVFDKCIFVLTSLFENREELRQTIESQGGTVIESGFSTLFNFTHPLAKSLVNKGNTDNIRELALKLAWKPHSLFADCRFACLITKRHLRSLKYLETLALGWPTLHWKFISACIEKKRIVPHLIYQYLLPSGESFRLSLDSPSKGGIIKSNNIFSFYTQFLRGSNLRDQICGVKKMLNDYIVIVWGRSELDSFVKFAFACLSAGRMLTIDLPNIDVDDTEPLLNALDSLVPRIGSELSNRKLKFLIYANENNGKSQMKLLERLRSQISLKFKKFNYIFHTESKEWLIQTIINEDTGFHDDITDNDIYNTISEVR

[2] = target: T5, Rad9-9MYC (S. cerevisiae); experiment: co-IP; Rad9-9MYC immunoprecipitated (anti-MYC) from bleocin-treated nocodazole-arrested cells; beads washed and incubated with ATP, ATP-gammaS or no nucleotide; beads and elution blotted
[3] = target: T6, Chk1-3FLAG (S. cerevisiae) (UniProt P38147); experiment: co-IP; anti-FLAG (Chk1-3FLAG) or anti-MYC (Dpb11-13MYC) IP from 1 ml clarified crude extract (10 mg/ml) of nocodazole-arrested wild type or rad9^CDK1-9A cells, mock or 20 ug/ml bleocin for 45 min; IgG mock IP as control; western blot
T6 sequence: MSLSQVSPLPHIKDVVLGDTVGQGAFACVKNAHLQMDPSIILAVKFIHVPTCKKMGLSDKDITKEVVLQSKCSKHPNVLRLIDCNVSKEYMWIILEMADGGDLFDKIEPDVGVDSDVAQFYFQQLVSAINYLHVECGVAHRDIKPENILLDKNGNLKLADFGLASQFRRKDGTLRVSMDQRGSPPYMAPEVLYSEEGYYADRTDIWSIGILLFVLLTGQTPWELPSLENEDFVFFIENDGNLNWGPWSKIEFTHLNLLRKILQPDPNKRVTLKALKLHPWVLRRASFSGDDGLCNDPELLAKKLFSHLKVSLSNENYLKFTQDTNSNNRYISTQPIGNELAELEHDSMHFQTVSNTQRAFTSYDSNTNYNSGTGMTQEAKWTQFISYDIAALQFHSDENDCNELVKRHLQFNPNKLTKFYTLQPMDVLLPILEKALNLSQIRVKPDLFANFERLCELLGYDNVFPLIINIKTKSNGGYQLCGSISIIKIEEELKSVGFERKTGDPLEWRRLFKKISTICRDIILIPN

binding (Clb5 (S. cerevisiae)): binds
binding (Cln2 (S. cerevisiae)): binds
binding (Clb3 (S. cerevisiae)): binds
binding (Clb2 (S. cerevisiae)): binds
Molecule: Cdc28 (from UniProt P00546 1-298) (enzyme)

binding [1]: binds
binding [2]: binds
Molecule: Rad53 (endogenous) (from UniProt P22216 1-821)

binding [3]: no binding
B1: Dpb11-13MYC (protein, UniProt P47027 1-764)
chain: MKPFQGITFCPTAINNEILAKKISKKIIKLGGIFSKDLTRQVNVLVVGSTTNTNKFKFAVKHRFDIIFIDIQAIDDIYQLWLSGENILPDSNTATMTGSTYEMLKILYRRFSFKYLHNFNIFIGRITDTNITSIDSLVRSIKKLGCSSYNYQNFVIKDTSSHNDDDDQGQNGQISIFVTDTLLGARVNAAIEQNIPIVHFKWILDCQKRSALLPYDPYYLLPNIKDLPYDSIGSNSCDCWDKINTTFPTNIDAQSSLQRQQSSSTLTPSLPKTSSLLNKFKPKGEKIWDKAMSLQQHSKTNFSVLGQSPLSINNKQEDLSDNSTLIFKNCAFIIHHIFPGNHRSILTKIVVQNGGKIETSYLSGIYDHSYYIIPSNKALDSFNDLPEIIDDNDGIVTEFFIERCLYYQKLLHPIDLWSKPFLSTIEFQVSSSSKLLHHEFSSSPFLNVTITGFSGVELLHLTKVLNLLKPMGINYVEYLNKSTDILLINLAALPSIPKTHPLWSNEFSDLFTQFCINNNNDDPGDNNRKDFQNNSILRNSMKRKIEYIKKFHSIPVVTPAFIFKLLSAASGENNEIFLNNIKWCIICPRGHKDDFKCKIKKPYYTSISSEKKYQNNDPKIDKTILLKRNNSSLSEHSMKDTKNELLQKIRETDSGRKKRSVSSSIMDVSSERQMPDTKRIKLESLPKNFVPKQIKRTTSWGTIMSENVPTEQPTAISNPEEIPRTEEVSHTQVTYGSIQDKKRTASLEKPMRRQTRNQTKELDS
